Experimental data from patent US4789478A, “Conversion of inorganic ions to metal sulfides by microorganisms” (priority 1987, dated 1988).

Tested on: Citrobacter freundii and Desulfomonas
Details: 32° C., aerobic, mean ± SD, 3 experiments

`[Cl][Hg][Cl]` [HgCl2, mercuric chloride] was tested. Which “% recovery in the filtrate” value (incubation time 0 h) did it give?
The value was 90 ± 12%.

What about the “% recovery in the filtrate” value (incubation time 6 h) of the same compound?
The value was 50%.

And the “% recovery in the filtrate” value (incubation time 12 h)?
The value was 15 ± 6%.

What about the “% recovery in the filtrate” value (incubation time 24 h) of the same compound?
Its value is 6 ± 1%.

And the “% recovery in the filtrate” value (incubation time 48 h)?
The value was 5 ± 3%.

Read-outs that look alike come from different tables or passages of the source.
